Laboratory results as given in patent publication US20220265769A1, “COMPOSITIONS AND METHODS OF TREATMENT FOR BREAST CANCER INVOLVING A NOVEL CAPER?-MLL1 COMPLEX” (Geisinger Health, priority 2019, published 2022).
No constants are given. Whether binding was seen depends on the method and setting. Binding calls can cover weak binding; strength is not graded here. For some assays here: In cells and extracts the contact can be indirect.

How the values were obtained:
[1] = biological target: MLL2 (human); experiment: co-IP, T47D and MDA-MB231 cells (FIG. 35A)
[2] = biological target: MLL2 (human); experiment: IP and immunoblot, T47D cells

B1: CAPERα (Coactivator of AP1 and Estrogen Receptor) (protein, human, UniProt Q14498 2-530, looked up)
chain: ADDIDIEAMLEAPYKKDENKLSSANGHEERSKKRKKSKSRSRSHERKRSKSKERKRSRDRERKKSKSRERKRSRSKERRRSRSRSRDRRFRGRYRSPYSGPKFNSAIRGKIGLPHSIKLSRRRSRSKSPFRKDKSPVREPIDNLTPEERDARTVFCMQLAARIRPRDLEEFFSTVGKVRDVRMISDRNSRRSKGIAYVEFVDVSSVPLAIGLTGQRVLGVPIIVQASQAEKNRAAAMANNLQKGSAGPMRLYVGSLHFNITEDMLRGIFEPFGRIESIQLMMDSETGRSKGYGFITFSDSECAKKALEQLNGFELAGRPMKVGHVTERTDASSASSFLDSDELERTGIDLGTTGRLQLMARLAEGTGLQIPPAAQQALQMSGSLAFGAVAEFSFVIDLQTRLSQQTEASALAAAASVQPLATQCFQLSNMFNPQTEEEVGWDTEIKDDVIEECNKHGGVIHIYVDKNSAQGNVYVKCPSIAAAIAAVNALHGRWFAGKMITAAYVPLPTYHNLFPDSMTATQLLVPSRR
binding [1]: binds
binding [2]: binds
